Data: publication PMC8849533
Results are given in words; binding and its absence hold for the method and conditions named. For part of these data: In cells and extracts the contact can be indirect. Some results given as binding are weak or reduced against the parent protein; the word gives no strength. For part of these data: Tags and fused reporters may be left off the sequences shown. Blank lines part the entries; values can stand above or below the molecule they belong to.

Sequences of proteins named here, by UniProt entry; tags and fusion partners are left off.
UniProt Q9UHP3: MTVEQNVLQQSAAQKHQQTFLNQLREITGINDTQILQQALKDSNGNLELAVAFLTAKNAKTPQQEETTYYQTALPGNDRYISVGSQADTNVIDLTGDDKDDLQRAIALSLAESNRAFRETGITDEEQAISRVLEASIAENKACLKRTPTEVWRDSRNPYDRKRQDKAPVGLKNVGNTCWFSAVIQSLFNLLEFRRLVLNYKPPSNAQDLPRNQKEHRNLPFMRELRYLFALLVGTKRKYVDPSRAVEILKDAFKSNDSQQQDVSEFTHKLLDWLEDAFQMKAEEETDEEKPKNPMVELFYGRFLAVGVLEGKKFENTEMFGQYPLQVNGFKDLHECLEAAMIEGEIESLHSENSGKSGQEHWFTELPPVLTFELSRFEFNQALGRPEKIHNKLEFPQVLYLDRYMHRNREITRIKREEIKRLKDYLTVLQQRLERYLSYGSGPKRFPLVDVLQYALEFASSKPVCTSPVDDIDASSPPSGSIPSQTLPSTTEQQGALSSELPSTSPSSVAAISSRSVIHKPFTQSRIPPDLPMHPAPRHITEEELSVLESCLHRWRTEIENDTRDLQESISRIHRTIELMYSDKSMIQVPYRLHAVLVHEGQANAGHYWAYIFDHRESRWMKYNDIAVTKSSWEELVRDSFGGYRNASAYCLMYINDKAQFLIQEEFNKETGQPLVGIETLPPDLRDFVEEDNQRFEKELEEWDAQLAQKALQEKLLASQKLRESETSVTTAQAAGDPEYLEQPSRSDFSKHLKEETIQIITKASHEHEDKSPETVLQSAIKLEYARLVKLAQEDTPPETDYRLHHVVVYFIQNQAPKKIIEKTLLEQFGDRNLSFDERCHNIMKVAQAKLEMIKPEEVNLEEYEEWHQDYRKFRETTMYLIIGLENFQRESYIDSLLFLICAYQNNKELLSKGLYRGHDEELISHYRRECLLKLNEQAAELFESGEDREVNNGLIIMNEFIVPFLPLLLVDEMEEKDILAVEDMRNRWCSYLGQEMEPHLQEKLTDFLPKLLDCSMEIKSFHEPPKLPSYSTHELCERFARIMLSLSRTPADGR
UniProt Q7Z434: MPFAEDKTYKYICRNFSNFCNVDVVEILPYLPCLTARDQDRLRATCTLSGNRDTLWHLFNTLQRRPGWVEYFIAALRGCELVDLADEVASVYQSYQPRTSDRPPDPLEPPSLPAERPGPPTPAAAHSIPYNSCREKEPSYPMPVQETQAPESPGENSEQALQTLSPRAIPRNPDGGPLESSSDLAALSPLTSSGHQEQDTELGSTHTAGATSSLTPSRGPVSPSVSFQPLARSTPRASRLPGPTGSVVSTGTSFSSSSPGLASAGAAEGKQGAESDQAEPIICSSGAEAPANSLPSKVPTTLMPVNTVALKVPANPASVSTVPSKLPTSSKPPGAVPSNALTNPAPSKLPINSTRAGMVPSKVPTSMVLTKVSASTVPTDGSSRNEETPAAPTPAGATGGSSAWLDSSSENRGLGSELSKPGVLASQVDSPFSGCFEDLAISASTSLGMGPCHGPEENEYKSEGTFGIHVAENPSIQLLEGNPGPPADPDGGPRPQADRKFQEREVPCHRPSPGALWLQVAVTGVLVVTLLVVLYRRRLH

What was measured:
[1] = biological target: T1, contactin-1 (CNTN1), overexpressed (human) (UniProt Q12860); experiment: co-IP; HEK293 cells transfected with the indicated plasmids for 24 h; NP-40 lysis buffer (20 mM Tris-HCl pH 7.5, 150 mM NaCl, 1% NP-40, 1 mM EDTA); 4 h at 4°C; beads washed with lysis buffer containing 500 mM NaCl; also in CNTN1+/+ or CNTN1-/- cells (Fig 6I) and MAVS+/+ cells (Fig 6J)
T1 sequence: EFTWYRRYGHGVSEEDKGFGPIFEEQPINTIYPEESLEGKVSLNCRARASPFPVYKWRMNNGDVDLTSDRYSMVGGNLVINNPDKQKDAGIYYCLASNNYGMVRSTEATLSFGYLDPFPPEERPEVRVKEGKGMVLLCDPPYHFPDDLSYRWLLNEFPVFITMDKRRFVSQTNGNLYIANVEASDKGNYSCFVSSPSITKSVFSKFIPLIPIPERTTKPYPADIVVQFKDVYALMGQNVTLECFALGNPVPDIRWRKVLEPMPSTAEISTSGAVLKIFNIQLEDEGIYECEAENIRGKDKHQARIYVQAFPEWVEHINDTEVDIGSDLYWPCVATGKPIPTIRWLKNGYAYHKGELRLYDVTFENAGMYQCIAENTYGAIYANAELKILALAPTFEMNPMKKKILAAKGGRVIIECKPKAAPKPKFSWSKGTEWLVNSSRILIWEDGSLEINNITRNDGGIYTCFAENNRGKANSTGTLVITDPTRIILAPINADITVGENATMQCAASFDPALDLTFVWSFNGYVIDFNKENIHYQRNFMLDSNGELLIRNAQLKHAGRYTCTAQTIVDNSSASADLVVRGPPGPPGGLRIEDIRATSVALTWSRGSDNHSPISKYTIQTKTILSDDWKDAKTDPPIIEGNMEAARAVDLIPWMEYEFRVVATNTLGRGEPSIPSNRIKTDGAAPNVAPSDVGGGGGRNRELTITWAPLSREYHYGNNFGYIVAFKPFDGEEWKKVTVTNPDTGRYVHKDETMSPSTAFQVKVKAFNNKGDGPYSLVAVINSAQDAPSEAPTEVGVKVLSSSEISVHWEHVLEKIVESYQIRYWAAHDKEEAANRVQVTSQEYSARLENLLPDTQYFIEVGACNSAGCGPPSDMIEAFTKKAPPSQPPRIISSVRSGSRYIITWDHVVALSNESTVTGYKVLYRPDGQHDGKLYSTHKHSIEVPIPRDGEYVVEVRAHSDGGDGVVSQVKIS

[2] = biological target: endogenous USP25 (human (endogenous in HEK293)) (UniProt Q9UHP3); experiment: co-IP
[3] = biological target: T2, endogenous CNTN1 (human (endogenous in HEK293)) (UniProt Q12860); experiment: co-IP
T2 sequence: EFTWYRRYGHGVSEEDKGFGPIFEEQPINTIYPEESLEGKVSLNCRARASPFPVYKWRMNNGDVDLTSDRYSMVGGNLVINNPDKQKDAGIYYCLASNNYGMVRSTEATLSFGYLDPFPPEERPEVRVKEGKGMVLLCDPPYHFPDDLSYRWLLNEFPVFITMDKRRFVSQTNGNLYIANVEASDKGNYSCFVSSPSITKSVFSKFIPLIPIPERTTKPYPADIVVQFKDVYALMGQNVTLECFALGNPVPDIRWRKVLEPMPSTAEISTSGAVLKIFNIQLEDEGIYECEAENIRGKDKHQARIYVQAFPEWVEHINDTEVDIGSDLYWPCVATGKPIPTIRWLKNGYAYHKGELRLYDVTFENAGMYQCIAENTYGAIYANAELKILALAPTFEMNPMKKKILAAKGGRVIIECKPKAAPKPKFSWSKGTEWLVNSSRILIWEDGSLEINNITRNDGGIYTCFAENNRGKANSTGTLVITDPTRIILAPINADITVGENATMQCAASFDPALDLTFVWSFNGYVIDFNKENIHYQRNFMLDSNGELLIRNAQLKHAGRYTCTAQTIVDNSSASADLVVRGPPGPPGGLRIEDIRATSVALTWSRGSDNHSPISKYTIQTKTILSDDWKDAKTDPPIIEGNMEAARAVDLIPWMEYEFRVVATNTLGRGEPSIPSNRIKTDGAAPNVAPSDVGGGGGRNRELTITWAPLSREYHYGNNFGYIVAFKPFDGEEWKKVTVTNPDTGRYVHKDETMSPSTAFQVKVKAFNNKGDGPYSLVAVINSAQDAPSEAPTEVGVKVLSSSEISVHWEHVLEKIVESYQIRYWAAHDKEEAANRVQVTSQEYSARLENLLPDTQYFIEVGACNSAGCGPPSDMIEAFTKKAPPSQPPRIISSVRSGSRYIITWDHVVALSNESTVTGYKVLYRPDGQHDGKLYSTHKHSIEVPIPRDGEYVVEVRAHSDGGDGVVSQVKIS

Flag-CNTN1 (human) = biological target: T3, Flag-CNTN1 (human) (UniProt Q12860); experiment: co-IP; HEK293 cells transfected with the indicated plasmids for 24 h; NP-40 lysis buffer (20 mM Tris-HCl pH 7.5, 150 mM NaCl, 1% NP-40, 1 mM EDTA); 4 h at 4°C; beads washed with lysis buffer containing 500 mM NaCl; also in CNTN1+/+ or CNTN1-/- cells (Fig 6I) and MAVS+/+ cells (Fig 6J)
T3 sequence: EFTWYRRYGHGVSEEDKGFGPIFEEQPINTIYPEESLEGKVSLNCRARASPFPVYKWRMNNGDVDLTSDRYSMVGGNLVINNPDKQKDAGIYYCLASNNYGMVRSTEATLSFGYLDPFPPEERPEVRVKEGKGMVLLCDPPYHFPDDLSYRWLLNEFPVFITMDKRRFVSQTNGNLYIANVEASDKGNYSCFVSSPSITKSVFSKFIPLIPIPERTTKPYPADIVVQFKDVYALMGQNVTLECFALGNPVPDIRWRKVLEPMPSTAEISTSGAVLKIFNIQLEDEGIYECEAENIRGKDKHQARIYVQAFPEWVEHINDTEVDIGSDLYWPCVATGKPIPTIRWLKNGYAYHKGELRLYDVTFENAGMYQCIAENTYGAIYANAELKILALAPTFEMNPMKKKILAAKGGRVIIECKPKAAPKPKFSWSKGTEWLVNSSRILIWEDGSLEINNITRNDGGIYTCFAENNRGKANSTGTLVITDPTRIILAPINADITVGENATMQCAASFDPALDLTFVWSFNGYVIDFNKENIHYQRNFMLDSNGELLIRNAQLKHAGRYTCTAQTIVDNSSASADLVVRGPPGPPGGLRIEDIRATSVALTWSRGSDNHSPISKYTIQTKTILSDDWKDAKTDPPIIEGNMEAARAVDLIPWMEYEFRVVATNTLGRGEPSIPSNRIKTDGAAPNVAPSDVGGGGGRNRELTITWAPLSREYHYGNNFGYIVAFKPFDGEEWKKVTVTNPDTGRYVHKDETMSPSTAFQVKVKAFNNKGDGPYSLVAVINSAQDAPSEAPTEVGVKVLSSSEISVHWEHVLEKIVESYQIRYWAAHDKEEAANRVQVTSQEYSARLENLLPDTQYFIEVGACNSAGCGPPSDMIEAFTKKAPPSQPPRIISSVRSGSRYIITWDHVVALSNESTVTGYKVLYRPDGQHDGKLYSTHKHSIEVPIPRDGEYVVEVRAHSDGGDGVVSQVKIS

GST-CNTN1 (human) = biological target: T4, GST-CNTN1 (human) (UniProt Q12860); experiment: pull-down; 1 μg purified GST fusion protein captured on Glutathione-Sepharose 4B beads, His-tagged fusion protein added overnight at 4°C; washed three times with ice-cold PBS; immunoblotting; both purified
T4 sequence: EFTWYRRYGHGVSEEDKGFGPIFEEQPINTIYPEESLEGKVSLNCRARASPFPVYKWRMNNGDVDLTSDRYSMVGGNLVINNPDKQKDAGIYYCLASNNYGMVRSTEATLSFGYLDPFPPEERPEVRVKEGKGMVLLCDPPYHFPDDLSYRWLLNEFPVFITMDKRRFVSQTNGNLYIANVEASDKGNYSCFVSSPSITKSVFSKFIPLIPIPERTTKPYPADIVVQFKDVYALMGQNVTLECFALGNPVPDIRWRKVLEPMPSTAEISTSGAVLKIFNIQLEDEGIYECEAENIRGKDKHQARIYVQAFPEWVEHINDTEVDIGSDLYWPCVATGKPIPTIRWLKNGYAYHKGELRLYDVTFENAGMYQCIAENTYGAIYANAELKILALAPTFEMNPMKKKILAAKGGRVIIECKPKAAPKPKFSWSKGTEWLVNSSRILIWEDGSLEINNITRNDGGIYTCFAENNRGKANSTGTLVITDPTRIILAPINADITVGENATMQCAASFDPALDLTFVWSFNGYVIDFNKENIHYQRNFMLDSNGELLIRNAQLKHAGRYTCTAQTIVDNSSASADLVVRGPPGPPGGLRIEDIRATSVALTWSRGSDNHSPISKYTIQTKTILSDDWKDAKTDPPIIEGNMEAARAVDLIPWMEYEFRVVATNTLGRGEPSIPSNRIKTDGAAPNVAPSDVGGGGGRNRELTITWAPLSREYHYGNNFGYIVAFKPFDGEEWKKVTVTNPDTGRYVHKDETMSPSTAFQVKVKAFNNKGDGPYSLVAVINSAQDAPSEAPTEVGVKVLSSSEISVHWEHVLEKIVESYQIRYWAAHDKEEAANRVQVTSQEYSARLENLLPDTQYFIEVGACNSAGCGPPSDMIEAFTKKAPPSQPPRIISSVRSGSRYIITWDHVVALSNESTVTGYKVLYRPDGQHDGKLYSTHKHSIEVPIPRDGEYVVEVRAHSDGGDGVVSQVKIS

Flag-USP25 = Flag-USP25 (UniProt Q9UHP3); experiment: co-IP; HEK293 cells transfected with the indicated plasmids for 24 h; NP-40 lysis buffer (20 mM Tris-HCl pH 7.5, 150 mM NaCl, 1% NP-40, 1 mM EDTA); 4 h at 4°C; beads washed with lysis buffer containing 500 mM NaCl; also in CNTN1+/+ or CNTN1-/- cells (Fig 6I) and MAVS+/+ cells (Fig 6J)

Molecule: Flag-USP25 (from UniProt Q9UHP3 1-1055) (enzyme)
binding [1]: binds

Molecule: endogenous MAVS (from UniProt Q7Z434 1-540)
binding [2]: binds
binding [3]: binds

Molecule: endogenous USP25 (from UniProt Q9UHP3 1-1055) (enzyme)
binding (Flag-CNTN1 (human)): binds
binding [3]: binds

Molecule: MAVS, overexpressed (from UniProt Q7Z434 1-540)
binding [1]: binds

More lines, now with the values ahead:

binding (GST-CNTN1 (human)): binds
Molecule: His-USP25 (from UniProt Q9UHP3 1-1055) (enzyme)

binding (Flag-USP25): binds
Molecule: HA-MAVS (from UniProt Q7Z434 1-540)

binding [1]: no binding
B1: RIG-I, overexpressed (protein, UniProt O95786 1-925)
chain: MTTEQRRSLQAFQDYIRKTLDPTYILSYMAPWFREEEVQYIQAEKNNKGPMEAATLFLKFLLELQEEGWFRGFLDALDHAGYSGLYEAIESWDFKKIEKLEEYRLLLKRLQPEFKTRIIPTDIISDLSECLINQECEEILQICSTKGMMAGAEKLVECLLRSDKENWPKTLKLALEKERNKFSELWIVEKGIKDVETEDLEDKMETSDIQIFYQEDPECQNLSENSCPPSEVSDTNLYSPFKPRNYQLELALPAMKGKNTIICAPTGCGKTFVSLLICEHHLKKFPQGQKGKVVFFANQIPVYEQQKSVFSKYFERHGYRVTGISGATAENVPVEQIVENNDIIILTPQILVNNLKKGTIPSLSIFTLMIFDECHNTSKQHPYNMIMFNYLDQKLGGSSGPLPQVIGLTASVGVGDAKNTDEALDYICKLCASLDASVIATVKHNLEELEQVVYKPQKFFRKVESRISDKFKYIIAQLMRDTESLAKRICKDLENLSQIQNREFGTQKYEQWIVTVQKACMVFQMPDKDEESRICKALFLYTSHLRKYNDALIISEHARMKDALDYLKDFFSNVRAAGFDEIEQDLTQRFEEKLQELESVSRDPSNENPKLEDLCFILQEEYHLNPETITILFVKTRALVDALKNWIEGNPKLSFLKPGILTGRGKTNQNTGMTLPAQKCILDAFKASGDHNILIATSVADEGIDIAQCNLVILYEYVGNVIKMIQTRGRGRARGSKCFLLTSNAGVIEKEQINMYKEKMMNDSILRLQTWDEAVFREKILHIQTHEKFIRDSQEKPKPVPDKENKKLLCRKCKALACYTADVRVIEECHYTVLGDAFKECFVSRPHPKPKQFSSFEKRAKIFCARQNCSHDWGIHVKYKTFEIPVIKIESFVVEDIATGVQTLYSKWKDFHFEKIPFDPAEMSK
